These are yes or no findings as the source states them, for the method shown. In cells and extracts the contact can be indirect. Some entries that bind do so weakly or less than the wild type.
Target: T1, CHMP4B (human (endogenous in HeLa)) (UniProt Q9H444)
T1 sequence: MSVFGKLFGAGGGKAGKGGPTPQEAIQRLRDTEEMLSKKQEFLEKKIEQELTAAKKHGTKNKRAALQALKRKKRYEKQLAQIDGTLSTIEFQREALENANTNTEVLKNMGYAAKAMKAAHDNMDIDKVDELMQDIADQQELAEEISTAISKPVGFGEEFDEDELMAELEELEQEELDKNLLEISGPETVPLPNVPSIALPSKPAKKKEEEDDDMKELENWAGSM
Experiment: co-IP; HeLa lysate (20 mM HEPES pH 7.2, 2 mM MgCl2, 100 mM NaCl, 0.1 mM EDTA, 0.1% Triton X-100) mixed 1 h at 4°C with Protein A beads coupled to rabbit anti-CHMP4B antibody (rabbit IgG as control); blot with anti-H2B, anti-Lamin A and anti-CHMP4B

The chains behind the UniProt entries cited, without tags or fusion partners. Residues count along the entry.
UniProt P02545, residues 1-646: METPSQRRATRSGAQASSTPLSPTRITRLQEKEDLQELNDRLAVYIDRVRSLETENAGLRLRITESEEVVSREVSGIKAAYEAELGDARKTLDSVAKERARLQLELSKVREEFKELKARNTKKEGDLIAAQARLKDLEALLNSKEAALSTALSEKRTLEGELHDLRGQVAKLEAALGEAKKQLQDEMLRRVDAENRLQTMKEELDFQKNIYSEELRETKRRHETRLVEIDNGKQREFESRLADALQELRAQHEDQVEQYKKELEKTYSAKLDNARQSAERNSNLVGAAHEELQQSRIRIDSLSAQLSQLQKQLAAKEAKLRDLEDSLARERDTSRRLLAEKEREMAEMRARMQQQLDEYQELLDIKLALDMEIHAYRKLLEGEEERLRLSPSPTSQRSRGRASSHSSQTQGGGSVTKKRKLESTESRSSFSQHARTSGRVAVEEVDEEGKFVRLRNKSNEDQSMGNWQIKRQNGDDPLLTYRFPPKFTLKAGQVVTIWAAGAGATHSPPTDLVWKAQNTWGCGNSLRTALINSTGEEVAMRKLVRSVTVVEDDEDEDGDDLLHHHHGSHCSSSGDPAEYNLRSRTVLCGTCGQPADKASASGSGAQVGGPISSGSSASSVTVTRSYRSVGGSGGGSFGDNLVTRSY

- binding: binds
Substance: Lamin A (from UniProt P02545 1-646)
